Assay results published in the supplement of paper PMC10849652.
The list shows a part of the results.

The chains behind the UniProt entries cited, without tags or fusion partners. Where a name states a change or a piece, a line headed by the entry shows the natural chain unless it says otherwise.
UniProt O95196: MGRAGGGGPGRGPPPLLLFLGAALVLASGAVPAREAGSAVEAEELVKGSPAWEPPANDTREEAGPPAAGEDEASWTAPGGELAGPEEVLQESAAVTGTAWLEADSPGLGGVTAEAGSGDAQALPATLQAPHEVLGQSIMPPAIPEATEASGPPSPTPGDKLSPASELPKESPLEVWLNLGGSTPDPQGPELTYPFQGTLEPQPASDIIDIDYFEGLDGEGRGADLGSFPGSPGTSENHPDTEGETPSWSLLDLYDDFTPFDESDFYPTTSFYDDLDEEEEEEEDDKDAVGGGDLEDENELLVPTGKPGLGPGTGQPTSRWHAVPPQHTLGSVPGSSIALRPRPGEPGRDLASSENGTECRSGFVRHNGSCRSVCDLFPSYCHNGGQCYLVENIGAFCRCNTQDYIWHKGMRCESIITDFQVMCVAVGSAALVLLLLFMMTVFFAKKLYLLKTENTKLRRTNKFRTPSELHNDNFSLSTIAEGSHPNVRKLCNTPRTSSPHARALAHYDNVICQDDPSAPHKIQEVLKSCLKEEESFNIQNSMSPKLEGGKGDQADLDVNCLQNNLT
UniProt P50461: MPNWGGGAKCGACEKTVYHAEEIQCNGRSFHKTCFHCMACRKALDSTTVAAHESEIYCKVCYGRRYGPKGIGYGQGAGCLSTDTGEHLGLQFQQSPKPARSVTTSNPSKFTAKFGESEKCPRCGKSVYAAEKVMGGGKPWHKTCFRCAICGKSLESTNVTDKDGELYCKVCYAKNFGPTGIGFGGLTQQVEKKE
UniProt Q1MSJ5: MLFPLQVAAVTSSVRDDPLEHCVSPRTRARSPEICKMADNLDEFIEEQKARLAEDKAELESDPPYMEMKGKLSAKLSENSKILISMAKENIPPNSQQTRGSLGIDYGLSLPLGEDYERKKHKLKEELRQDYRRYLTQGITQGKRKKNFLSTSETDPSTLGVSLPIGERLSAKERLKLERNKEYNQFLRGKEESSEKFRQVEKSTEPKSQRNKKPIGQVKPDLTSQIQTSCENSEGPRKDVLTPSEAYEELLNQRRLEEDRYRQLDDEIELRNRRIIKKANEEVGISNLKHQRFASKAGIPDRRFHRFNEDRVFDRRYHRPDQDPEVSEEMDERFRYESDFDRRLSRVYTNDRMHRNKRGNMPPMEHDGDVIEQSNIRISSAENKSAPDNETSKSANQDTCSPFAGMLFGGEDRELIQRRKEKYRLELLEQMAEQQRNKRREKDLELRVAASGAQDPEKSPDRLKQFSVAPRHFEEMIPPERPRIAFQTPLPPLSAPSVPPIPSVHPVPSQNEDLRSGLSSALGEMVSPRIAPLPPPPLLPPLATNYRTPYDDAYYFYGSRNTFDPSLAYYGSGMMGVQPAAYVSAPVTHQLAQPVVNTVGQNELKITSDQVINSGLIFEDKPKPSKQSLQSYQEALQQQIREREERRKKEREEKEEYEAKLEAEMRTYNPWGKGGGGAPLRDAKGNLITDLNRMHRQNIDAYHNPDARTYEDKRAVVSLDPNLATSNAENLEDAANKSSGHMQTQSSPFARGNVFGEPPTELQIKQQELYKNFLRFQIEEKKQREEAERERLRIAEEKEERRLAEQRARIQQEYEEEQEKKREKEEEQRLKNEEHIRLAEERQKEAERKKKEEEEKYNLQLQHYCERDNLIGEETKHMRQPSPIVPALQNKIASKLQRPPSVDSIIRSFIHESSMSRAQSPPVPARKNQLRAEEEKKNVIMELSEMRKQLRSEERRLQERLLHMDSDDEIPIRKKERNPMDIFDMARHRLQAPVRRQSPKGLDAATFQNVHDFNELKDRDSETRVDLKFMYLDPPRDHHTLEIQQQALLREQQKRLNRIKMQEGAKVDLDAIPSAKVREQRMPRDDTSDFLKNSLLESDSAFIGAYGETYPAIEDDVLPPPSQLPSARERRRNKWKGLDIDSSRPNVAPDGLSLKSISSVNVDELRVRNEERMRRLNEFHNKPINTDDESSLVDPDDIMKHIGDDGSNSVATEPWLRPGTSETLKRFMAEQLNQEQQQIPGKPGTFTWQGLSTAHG
UniProt P99999: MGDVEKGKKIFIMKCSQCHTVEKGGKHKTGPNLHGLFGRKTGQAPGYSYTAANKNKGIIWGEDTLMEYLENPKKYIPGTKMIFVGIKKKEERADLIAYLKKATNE
UniProt P48729: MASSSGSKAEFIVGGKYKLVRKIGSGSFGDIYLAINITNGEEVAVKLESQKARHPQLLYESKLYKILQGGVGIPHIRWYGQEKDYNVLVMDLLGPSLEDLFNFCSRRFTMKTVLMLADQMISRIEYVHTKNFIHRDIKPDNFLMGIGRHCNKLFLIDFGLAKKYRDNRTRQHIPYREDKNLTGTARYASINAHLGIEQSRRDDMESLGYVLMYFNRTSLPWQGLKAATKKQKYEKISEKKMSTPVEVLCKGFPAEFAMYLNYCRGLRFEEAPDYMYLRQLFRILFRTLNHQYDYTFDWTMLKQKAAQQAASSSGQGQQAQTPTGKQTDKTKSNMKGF
UniProt P16220: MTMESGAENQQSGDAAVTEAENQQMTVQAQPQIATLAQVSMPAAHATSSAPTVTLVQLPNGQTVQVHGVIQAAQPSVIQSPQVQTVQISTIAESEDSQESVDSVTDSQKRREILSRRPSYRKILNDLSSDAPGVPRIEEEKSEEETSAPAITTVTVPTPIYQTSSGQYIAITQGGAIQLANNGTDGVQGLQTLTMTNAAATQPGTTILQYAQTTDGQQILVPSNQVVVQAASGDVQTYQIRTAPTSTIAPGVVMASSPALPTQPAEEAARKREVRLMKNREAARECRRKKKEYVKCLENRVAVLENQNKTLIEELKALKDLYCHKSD
UniProt P13498: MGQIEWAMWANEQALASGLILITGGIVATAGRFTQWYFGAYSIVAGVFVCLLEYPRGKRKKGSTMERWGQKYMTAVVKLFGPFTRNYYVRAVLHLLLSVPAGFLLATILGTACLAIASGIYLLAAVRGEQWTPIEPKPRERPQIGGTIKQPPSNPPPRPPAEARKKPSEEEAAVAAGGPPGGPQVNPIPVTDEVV
UniProt Q9UBG3: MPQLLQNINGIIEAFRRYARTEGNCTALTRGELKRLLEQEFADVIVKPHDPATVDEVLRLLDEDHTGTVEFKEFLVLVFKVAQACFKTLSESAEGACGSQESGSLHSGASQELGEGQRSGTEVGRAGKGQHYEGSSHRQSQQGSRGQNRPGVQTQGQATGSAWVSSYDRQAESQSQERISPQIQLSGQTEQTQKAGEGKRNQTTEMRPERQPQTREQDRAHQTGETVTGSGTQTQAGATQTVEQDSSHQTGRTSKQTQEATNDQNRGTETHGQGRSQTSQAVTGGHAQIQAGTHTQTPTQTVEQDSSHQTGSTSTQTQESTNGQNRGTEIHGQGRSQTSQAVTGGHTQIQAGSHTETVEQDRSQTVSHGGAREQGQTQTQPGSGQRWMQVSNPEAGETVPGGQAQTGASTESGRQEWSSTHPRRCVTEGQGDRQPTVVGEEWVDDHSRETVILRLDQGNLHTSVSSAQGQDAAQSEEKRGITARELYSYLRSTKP
UniProt Q8WYA6: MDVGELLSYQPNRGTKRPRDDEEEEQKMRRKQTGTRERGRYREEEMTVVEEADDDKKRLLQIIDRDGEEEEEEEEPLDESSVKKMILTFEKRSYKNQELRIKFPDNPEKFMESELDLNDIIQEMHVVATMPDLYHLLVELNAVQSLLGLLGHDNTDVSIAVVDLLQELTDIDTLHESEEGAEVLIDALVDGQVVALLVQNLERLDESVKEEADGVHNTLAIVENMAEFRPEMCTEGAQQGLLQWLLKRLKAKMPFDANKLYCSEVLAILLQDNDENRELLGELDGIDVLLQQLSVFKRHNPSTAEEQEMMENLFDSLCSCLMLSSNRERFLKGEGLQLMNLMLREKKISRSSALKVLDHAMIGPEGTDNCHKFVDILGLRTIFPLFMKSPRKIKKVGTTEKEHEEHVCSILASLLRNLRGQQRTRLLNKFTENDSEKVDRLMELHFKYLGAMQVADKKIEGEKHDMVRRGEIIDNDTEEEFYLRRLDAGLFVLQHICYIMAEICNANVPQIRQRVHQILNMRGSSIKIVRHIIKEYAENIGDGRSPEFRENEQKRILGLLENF
UniProt O75629: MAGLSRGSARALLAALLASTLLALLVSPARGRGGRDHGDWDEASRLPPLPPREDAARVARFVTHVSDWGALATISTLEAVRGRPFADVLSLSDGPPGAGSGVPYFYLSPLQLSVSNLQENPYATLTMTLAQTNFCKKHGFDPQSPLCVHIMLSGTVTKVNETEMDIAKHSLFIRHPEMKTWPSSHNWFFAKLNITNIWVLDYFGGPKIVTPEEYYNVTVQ
UniProt Q12996: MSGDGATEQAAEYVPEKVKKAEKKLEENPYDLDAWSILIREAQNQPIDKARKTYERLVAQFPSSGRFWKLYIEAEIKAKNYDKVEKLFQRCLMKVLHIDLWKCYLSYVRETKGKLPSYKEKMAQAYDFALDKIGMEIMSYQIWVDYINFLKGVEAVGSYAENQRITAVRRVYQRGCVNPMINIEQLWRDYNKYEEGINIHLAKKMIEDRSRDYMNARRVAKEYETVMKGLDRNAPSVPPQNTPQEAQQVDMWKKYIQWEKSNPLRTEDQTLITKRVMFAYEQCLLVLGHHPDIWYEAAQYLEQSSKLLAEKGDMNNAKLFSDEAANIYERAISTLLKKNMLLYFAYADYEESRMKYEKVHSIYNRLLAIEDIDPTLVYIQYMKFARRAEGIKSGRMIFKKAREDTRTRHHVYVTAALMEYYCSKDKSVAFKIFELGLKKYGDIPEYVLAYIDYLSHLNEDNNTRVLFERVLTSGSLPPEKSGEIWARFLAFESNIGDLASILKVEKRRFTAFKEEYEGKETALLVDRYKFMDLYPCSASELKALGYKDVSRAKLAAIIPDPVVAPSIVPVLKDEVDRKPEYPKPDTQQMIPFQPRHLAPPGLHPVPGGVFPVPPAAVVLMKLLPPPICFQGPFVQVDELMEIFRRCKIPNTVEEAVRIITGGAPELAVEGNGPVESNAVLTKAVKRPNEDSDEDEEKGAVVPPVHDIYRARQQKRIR
UniProt Q13620, whole entry, looked up: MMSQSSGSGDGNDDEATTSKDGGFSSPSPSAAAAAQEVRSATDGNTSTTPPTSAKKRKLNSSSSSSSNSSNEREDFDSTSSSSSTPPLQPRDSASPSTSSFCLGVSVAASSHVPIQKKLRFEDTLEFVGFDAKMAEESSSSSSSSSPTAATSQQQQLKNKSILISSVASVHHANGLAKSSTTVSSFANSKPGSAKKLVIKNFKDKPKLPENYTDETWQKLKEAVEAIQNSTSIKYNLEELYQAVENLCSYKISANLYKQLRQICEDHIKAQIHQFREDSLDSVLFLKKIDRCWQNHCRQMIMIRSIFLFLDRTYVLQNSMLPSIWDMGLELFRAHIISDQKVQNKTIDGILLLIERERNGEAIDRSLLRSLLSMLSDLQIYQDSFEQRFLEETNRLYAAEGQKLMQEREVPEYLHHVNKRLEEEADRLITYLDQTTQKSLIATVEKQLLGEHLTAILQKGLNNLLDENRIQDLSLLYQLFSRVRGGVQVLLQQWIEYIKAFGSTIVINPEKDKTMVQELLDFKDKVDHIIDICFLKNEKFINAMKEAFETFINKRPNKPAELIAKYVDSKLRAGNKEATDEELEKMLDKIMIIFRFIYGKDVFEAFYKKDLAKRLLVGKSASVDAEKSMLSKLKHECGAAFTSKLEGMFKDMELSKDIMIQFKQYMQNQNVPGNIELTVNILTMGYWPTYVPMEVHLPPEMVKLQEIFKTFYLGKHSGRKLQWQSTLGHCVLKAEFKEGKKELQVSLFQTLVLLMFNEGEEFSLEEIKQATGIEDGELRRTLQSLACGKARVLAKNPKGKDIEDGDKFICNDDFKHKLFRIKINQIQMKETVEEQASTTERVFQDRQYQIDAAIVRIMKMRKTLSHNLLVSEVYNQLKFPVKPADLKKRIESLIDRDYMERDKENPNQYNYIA
UniProt P10619: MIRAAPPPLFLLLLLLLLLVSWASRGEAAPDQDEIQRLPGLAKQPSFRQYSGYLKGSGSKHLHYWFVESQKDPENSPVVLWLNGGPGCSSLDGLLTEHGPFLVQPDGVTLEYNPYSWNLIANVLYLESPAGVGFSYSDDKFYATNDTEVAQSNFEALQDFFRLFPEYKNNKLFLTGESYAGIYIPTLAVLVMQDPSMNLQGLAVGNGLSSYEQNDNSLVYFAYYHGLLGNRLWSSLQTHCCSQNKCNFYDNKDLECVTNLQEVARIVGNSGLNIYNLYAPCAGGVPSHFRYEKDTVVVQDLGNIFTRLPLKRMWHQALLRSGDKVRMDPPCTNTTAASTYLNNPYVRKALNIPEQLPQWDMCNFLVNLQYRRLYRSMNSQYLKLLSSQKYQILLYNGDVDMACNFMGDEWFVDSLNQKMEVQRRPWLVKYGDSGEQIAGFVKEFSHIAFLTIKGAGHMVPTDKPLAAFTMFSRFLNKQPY

The targets below were run with NCC(=O)Nc1ccc(-n2nc(C(F)(F)F)cc2-c2ccc3c(ccc4ccccc43)c2)cc1 (assay: log2 fold change, soluble protein after heating vs DMSO (PISA); higher = thermal stabilisation; K562 lysate, 10 uM; active = over 0.2 and 3.5 SD of the protein, either way, in both replicates (recomputed)).
Outline: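 The values are log-two fold changes in thermal stability compared with solvent controls and come from duplicates. They were obtained by TMTpro 16plex LC-MS/MS, with channel sums equalised, on the supernatant after 21,000xg for 90 min. That supernatant came from crude K562 extract at 1 mg/mL protein treated with 10 μM compound for 30 min, heated for 3 min across 48°C-58°C, pooled and brought to 0.5% NP-40 at 4°C.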

**Q.** With CTSC (UniProt P53634) as the target, how does the log2 fold change read?
**A.** inactive: 0

**Q.** CTTN isoform 2 (UniProt Q14247) was tested. Which log2 fold change did it give?
**A.** inactive: 0.022

**Q.** Which log2 fold change does the source give for CSPG5 isoform 2 (UniProt O95196) here?
**A.** inactive: -0.022

**Q.** CTIF (UniProt O43310) was tested. Which log2 fold change did it give?
**A.** inactive: -0.008

**Q.** For CUL5 (UniProt Q93034), which log2 fold change is on record?
**A.** inactive: 0.008

**Q.** How did the log2 fold change turn out when CROCC (UniProt Q5TZA2) was run?
**A.** inactive: 0.056

**Q.** Which log2 fold change does the source give for CSRP3 (UniProt P50461) here?
**A.** inactive: 0.027

**Q.** For CTNNB1 (UniProt P35222), which log2 fold change is on record?
**A.** inactive: 0.114

**Q.** CSPP1 (UniProt Q1MSJ5) was tested. Which log2 fold change did it give?
**A.** inactive: 0.122

**Q.** For CSRP1 (UniProt P21291), which log2 fold change is on record?
**A.** inactive: 0.082

**Q.** For CYCS (UniProt P99999), which log2 fold change is on record?
**A.** inactive: 0.017

**Q.** With CTIF isoform 2 (UniProt O43310) as the target, how does the log2 fold change read?
**A.** inactive: -0.05

**Q.** For CSNK1A1 (UniProt P48729), which log2 fold change is on record?
**A.** inactive: 0.001

**Q.** Which log2 fold change does the source give for CTC1 (UniProt Q2NKJ3) here?
**A.** inactive: 0.05

**Q.** With CREB1 (UniProt P16220) as the target, how does the log2 fold change read?
**A.** inactive: -0.013

**Q.** Which log2 fold change does the source give for CYBA (UniProt P13498) here?
**A.** inactive: 0.033

**Q.** CST3 (UniProt P01034) was tested. Which log2 fold change did it give?
**A.** inactive: -0.012

**Q.** With CTNNAL1 (UniProt Q9UBT7) as the target, how does the log2 fold change read?
**A.** inactive: -0.033

**Q.** For CRNN (UniProt Q9UBG3), which log2 fold change is on record?
**A.** inactive: 0.2

**Q.** Which log2 fold change does the source give for CYBRD1 (UniProt Q53TN4) here?
**A.** inactive: 0.128

**Q.** How did the log2 fold change turn out when CTSH (UniProt P09668) was run?
**A.** inactive: 0.003

**Q.** How did the log2 fold change turn out when CTNNBL1 (UniProt Q8WYA6) was run?
**A.** inactive: -0.026

**Q.** How did the log2 fold change turn out when CTPS2 (UniProt Q9NRF8) was run?
**A.** inactive: 0.006

**Q.** Which log2 fold change does the source give for CREG1 (UniProt O75629) here?
**A.** inactive: -0.04

**Q.** How did the log2 fold change turn out when CSTF3 (UniProt Q12996) was run?
**A.** inactive: -0.056

**Q.** Which log2 fold change does the source give for CTNND1 isoform 3 (UniProt O60716) here?
**A.** inactive: -0.017

**Q.** CRY2 (UniProt Q49AN0) was tested. Which log2 fold change did it give?
**A.** inactive: -0.022

**Q.** How did the log2 fold change turn out when CYP20A1 (UniProt Q6UW02) was run?
**A.** inactive: -0.002

**Q.** CWF19L2 (UniProt Q2TBE0) was tested. Which log2 fold change did it give?
**A.** inactive: 0.019

**Q.** With CRAT (UniProt P43155) as the target, how does the log2 fold change read?
**A.** inactive: -0.127

**Q.** CRTC2 (UniProt H0YDQ8) was tested. Which log2 fold change did it give?
**A.** inactive: -0.032

**Q.** Which log2 fold change does the source give for CUL4B (UniProt Q13620) here?
**A.** inactive: -0.001

**Q.** For CXorf56 (UniProt Q9H5V9), which log2 fold change is on record?
**A.** inactive: -0.015

**Q.** How did the log2 fold change turn out when CYB5R1 (UniProt Q9UHQ9) was run?
**A.** inactive: -0.018

**Q.** How did the log2 fold change turn out when CTSA (UniProt P10619) was run?
**A.** inactive: -0.006

**Q.** With CYFIP1 (UniProt Q7L576) as the target, how does the log2 fold change read?
**A.** inactive: -0.001

**Q.** Which log2 fold change does the source give for CRYL1 (UniProt Q9Y2S2) here?
**A.** inactive: -0.245

**Q.** Which log2 fold change does the source give for CTPS1 (UniProt P17812) here?
**A.** inactive: -0.007
